## Library screening results

From ChEMBL document CHEMBL3988442, “University of Dundee, Small-Polar-MMV Screening Library” (2021).

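Viability assay of Plasmodium falciparum sporozoites; the read-out is not stated. The concentration is filed as 10 mM, unlikely as a test dose, so the dose is not known. The record gives no direction; compounds that gave an IC50 in retests scored well above the rest, so higher reads as lower viability. Strong results were mostly tested again. Of about 34,000 compounds tested this way, about 280 (0.84%) reached 50% or more in at least one test.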

Results are given as percent effect. The record does not define 0% and 100%; most values in the screen are far below 50% and negative numbers occur (in some assays of this library far below -100). The compounds are a random part of those screened. Two or more numbers in one place are separate tests of the same structure; such repeats can differ widely.

SMILES | effect
Cn1ccnc(Sc2cccc(C#N)c2)c1=O | -0.6519%
CN(C)c1nc2sc(C(=O)N3CCNC(=O)CC3)cc2s1 | -2.509%
COc1ccc(C[C@H]2CN(C(=O)C3CC3)CC[C@H]2OC)cc1 | 27.93%
O=C(NCc1ccc(F)cc1)N1CCC(C2OCCO2)CC1 | -1.466%
COc1ccnc(N2CCN(CC(=O)N3CCOC(C)C3)CC2)n1 (stereo not shown) | -0.9874%
OCCN1CCCC(c2cccc(-c3ccccc3F)n2)C1 (stereo not shown) | 2.31%
Cc1nc(CC(=O)N(CCN2CCOCC2)Cc2ccco2)c(C)s1 | -6.053%
O=c1[nH]c(CCN2CCN(CC(F)(F)F)CC2)nc2ccccc12 | -1.829%
Cc1ccc(CNC(=O)CCSCc2csc(C)n2)cn1 | 2.878%
Cn1ncc2c(N3CCN(C(N)=O)CC3)nc(C3CCCC3)nc21 | 6.719%
Cc1cnn(CCNCC(=O)NC2(C#N)CCCC2)c1 | 2.487%
COCCCN1Cc2cccc(NC(=O)C(C)(C)C)c2C1 | -10.76% and -17.16% and -21.1%
Cc1noc(C)c1-c1cccc(C2CN(S(=O)(=O)N(C)C)CCO2)n1 (stereo not shown) | 14.95%
CCC(O)Cn1nc(-c2ccc(C(=O)O)cc2)cc1-c1ccc(F)cc1 (stereo not shown) | -10.78%
CCC(C)(C)NC(=O)Cn1nc(C)nc1-c1ccccc1 | -6.632%
CC(NC1CCN(CCS(C)(=O)=O)CC1)c1ccc(Cl)cc1 (stereo not shown) | -13.06%
[H][C@]12CCCN(S(=O)(=O)c3ccc(OC)cc3)[C@@]1([H])CN(C(=O)C1CC1)C2 | 2.525%
COC(=O)CNC(=O)CCc1cc(Br)cs1 | -10.54%
COCCCNC(=O)CN1CCCC1c1c(C)nn(C)c1Cl (stereo not shown) | -12.17%
CCn1cc(CN2CCc3nc(N4CCOCC4)nc(O)c3CC2)cn1 | -21.68%
CCN1CC(C(=O)NC(C)(C)CC(C)(C)C)CC1=O (stereo not shown) | 10.15%
O=C(CN1CC(n2cccn2)C1)NCCCN1CCCC1=O | 12.43%
Cc1cnn(CC2CCCN2Cc2ncc(-c3ccc(F)cc3)o2)c1 (stereo not shown) | 19.52%
Cn1cc(C2CCCN2C(=O)CCCc2cccs2)cn1 (stereo not shown) | 12.71%
O=C(NC1(c2nnn(CCO)n2)CCCC1)c1ccccc1 | -4.936%
O=C(NCCNc1cnccn1)N1CCCC1 | -2.625%
CN1CCCC(c2cccc(Cc3ccccc3Cl)n2)C1 (stereo not shown) | -3.91%
Cn1ccnc1-c1cn(CCc2nnc(N)s2)nn1 | -7.878%
Fc1cnc(N2CCCn3c(nnc3Cn3cccc3)C2)nc1.O=C(O)C(F)(F)F | -10.3%
CCOC(=O)[C@H]1[C@@H](O)C(=O)N(C)C12CCN(C(=O)CC(C)C)CC2 | 3.923%
CN(C)S(=O)(=O)N1CC[C@]2(C[C@@H](Oc3cccnc3)CO2)C1.O=C(O)C(F)(F)F | -0.2433%
Cc1ccc(C(=O)N2CCN(C(=O)Cc3ccccn3)CC2)c(C)c1 | -11.38% and 45.96% and -22.12%
[H][C@]12CC[C@]([H])(CN(S(=O)(=O)N(C)C)C1)N(C(=O)c1sc(CC)nc1C)C2 | 4.077%
Nc1cc2c(nn1)CCN(C(=O)CC1CCCC1)C2 | -6.168%
Cc1cc(C(=O)N2CCCN(Cc3cnn(C)c3)CC2)no1 | 10.58%
CCc1noc(CN(Cc2ccc3c(c2)OCO3)C2CCCC2)n1 | 55.13% and 62.45% and 59.26%
Cc1cc(NC(=O)C(C)N2CCN(c3nccs3)CC2)on1 (stereo not shown) | -0.7455%
O=C(O)C(F)(F)F.[H][C@@]12CCCO[C@]1([H])[C@@H](OC)CN2CC1CCOCC1 | 4.557%
CN(C)CCOCC1CN(Cc2ccc(F)cc2)Cc2nnn(C)c21.O=C(O)C(F)(F)F.O=C(O)C(F)(F)F (stereo not shown) | 3.947%
CN(C)C(=O)CN1CCc2ncnc(N(C)C)c2CC1.O=C(O)C(F)(F)F | 12.96%
C[C@]1(O)CN(Cc2ccc(C(=O)O)cc2)CC[C@@H]1Oc1cccc(F)c1 | -2.678%
O=C(O)C(F)(F)F.[H][C@]12CCCN(Cc3ccoc3)[C@@]1([H])CN(C(=O)c1ccco1)C2 | -17.76%
CNS(=O)(=O)c1ccc(C(=O)N2CCCC2Cc2ccccc2)o1 (stereo not shown) | -2.526%
CN(C)CCCN(Cc1ccco1)Cc1ccnn1C1CCCCO1.O=C(O)CC(O)(CC(=O)O)C(=O)O (stereo not shown) | -3.035%
Cc1ccc(CN2CCc3ncnc(C4CC4)c3CC2)s1.O=C(O)C(F)(F)F | -30.67% and -34.09% and 0.3247%
CCc1nc(NCCCn2cccn2)c2c(n1)c(C)nn2C | 1.974%
Cc1noc(C)c1CNCC1Cn2nncc2CO1.O=C(O)C(F)(F)F (stereo not shown) | 6.83%
[H][C@@]12C[C@H](C)O[C@]1([H])CCN(C(=O)COC)C2 | -14.18%
CCC(CNC(=O)Nc1cnn(CC)c1)N1CCCC1 (stereo not shown) | 0.08224%
CCn1cc(NC(=O)NCCN2CCCc3ccccc32)cn1 | -384.2%
Cc1nn(C)c(Cl)c1C1CCCN1C(=O)CCNc1ncccn1 (stereo not shown) | 1.125%
Cc1c(Cn2cc(Cl)c(N)n2)cnn1C | -0.8705%
CCn1cnnc1CNC(=O)N1CCN(Cc2ccsc2)CC1 | -1.259%
[H][C@@]12COC[C@@H](CC(=O)N3CCCO3)[C@]1([H])CN(Cc1c(C)noc1C)C2 | 5.412%
Cc1cnn(CC2CCCN2Cc2coc(-c3cccs3)n2)c1 (stereo not shown) | -16.65%
Cc1cnn(C2CCCN(C(=O)c3ccc(-n4cnnn4)cc3)C2)c1 (stereo not shown) | 0.8792%
CC(CN1CCOCC1)NC(=O)NCc1ccc(Cl)s1 (stereo not shown) | -5.975%
O=c1cc2c(nn1CN1CCOCC1)CCC2 | -3.509%
Cc1nc(C(=O)N2CCCC(c3cccc(-n4ccnc4)n3)C2)co1 (stereo not shown) | 8.175%
CC(=O)c1cn(CCC(=O)NCCC(=O)O)c2ccccc12 | 5.482%
CCOc1ncccc1NC(=O)NCC(O)c1ccccc1OC (stereo not shown) | 4.03%
CCOCC1CN(S(C)(=O)=O)Cc2cnn(C)c21 (stereo not shown) | -2.273%
COc1ccc(NC(=O)c2cnc(C3CCN(C(C)=O)C3)nc2C)cc1 (stereo not shown) | 8.277%
Cc1cc(C)c(CNC(=O)N2CCN(c3cnccn3)CC2)c(=O)[nH]1 | 6.265%
Cc1occc1C(=O)N1CCCC2(CCN(CCN3CCCC3)C2=O)C1.O=C(O)C(F)(F)F (stereo not shown) | -2.617%
COc1c(C)cnc(CN(C)C(=O)c2cccnc2N(C)C)c1C | 17.39%
Cn1cc(C2CCCN2C(=O)CCCOc2ccc(F)cc2)cn1 (stereo not shown) | -1.697%
Cc1ncsc1C(=O)NC1CCN(CC(N)=O)CC1 | 1.526%
O=C(Cc1ccsc1)N1CCOC(c2nc(-c3ncccn3)no2)C1 (stereo not shown) | 2.465%
Cc1nn(C)c(C)c1-c1cnc(CC2CCNCC2)cn1 | 12.11%
CCN(Cc1ccc2c(c1)OCCO2)C(=O)NCc1cc[nH]n1 | -19.88%
O=C1CC2(CCN(Cc3ccsc3)C2)CN1c1ccc2c(c1)OCO2 (stereo not shown) | -1.217%
Cc1nc(C)n(C2CCCN(C(=O)c3sccc3C)C2)n1 (stereo not shown) | 7.657%
Cc1cc(C)c(CNC(=O)NCC2CCCN2C)c(=O)[nH]1 (stereo not shown) | 12.37%
CC(C)(C)c1c[nH]c([C@@H]2COCCN2C2CCC2)n1 | 4.414% and 6.83%
Nc1cc(C(=O)N2CCC3(CC2)Nc2ccccc2NC3=O)ccn1 | -2.895%
CCN(CC)C(=O)c1ccc(CNc2cncc(-n3cccn3)n2)cc1 | 11.15%
Cc1cc(CNC(=O)CN2CCN(C(=O)OC(C)(C)C)CC2)ccc1F | -23.7% and -26.17%
CNc1cc(C)nc(C2COCCN2CCOc2ccc(F)cc2)n1 (stereo not shown) | 6.969%
Cc1cnn(CC2CN(c3ncnc4ccsc34)CCO2)c1 (stereo not shown) | -2.255%
NC(=O)c1csc(C(=O)N2CCCC(n3cccn3)C2)c1 (stereo not shown) | 3.241%
O=C(O)C(F)(F)F.c1coc(CN2CCC3(CC2)COC(COCC2CC2)C3)c1 (stereo not shown) | 10.6%
O=C(O)C(F)(F)F.[H][C@@]12C[C@H](C(=O)Nc3cccnc3)CN(C(=O)c3ccsc3)[C@]1([H])CCO2 | -9.732%
Cl.Cn1nc(C2CCCN(Cc3cc(F)ccc3F)C2)c2nccnc21 (stereo not shown) | 11.25%
Cc1nc(C2CCCN2C(=O)CNS(C)(=O)=O)no1 (stereo not shown) | 2.361%
COCCNC(=O)CCc1c(C)nn(-c2nc(C)c(C)c(=O)[nH]2)c1C | -11.06%
N#Cc1cccc(N2CCOC3(CNCCOC3)C2)n1 (stereo not shown) | 13.25%
Cc1nc(CN(C)C2CCN(Cc3cccc(F)c3)C2)no1 (stereo not shown) | 7.381%

Repeated from the top, 10 entries:

SMILES	effect
Cn1ccnc(Sc2cccc(C#N)c2)c1=O	-0.6519%
CN(C)c1nc2sc(C(=O)N3CCNC(=O)CC3)cc2s1	-2.509%
COc1ccc(C[C@H]2CN(C(=O)C3CC3)CC[C@H]2OC)cc1	27.93%
O=C(NCc1ccc(F)cc1)N1CCC(C2OCCO2)CC1	-1.466%
COc1ccnc(N2CCN(CC(=O)N3CCOC(C)C3)CC2)n1 (stereo not shown)	-0.9874%
OCCN1CCCC(c2cccc(-c3ccccc3F)n2)C1 (stereo not shown)	2.31%
Cc1nc(CC(=O)N(CCN2CCOCC2)Cc2ccco2)c(C)s1	-6.053%
O=c1[nH]c(CCN2CCN(CC(F)(F)F)CC2)nc2ccccc12	-1.829%
Cc1ccc(CNC(=O)CCSCc2csc(C)n2)cn1	2.878%
Cn1ncc2c(N3CCN(C(N)=O)CC3)nc(C3CCCC3)nc21	6.719%